We go through 32 targets from the supplement of paper PMC10849652.

Chains of the proteins cited; added tags and fusions are not shown. Lines headed by an entry give the natural chain unless they say otherwise; changes in a name come on top.
UniProt Q6YP21: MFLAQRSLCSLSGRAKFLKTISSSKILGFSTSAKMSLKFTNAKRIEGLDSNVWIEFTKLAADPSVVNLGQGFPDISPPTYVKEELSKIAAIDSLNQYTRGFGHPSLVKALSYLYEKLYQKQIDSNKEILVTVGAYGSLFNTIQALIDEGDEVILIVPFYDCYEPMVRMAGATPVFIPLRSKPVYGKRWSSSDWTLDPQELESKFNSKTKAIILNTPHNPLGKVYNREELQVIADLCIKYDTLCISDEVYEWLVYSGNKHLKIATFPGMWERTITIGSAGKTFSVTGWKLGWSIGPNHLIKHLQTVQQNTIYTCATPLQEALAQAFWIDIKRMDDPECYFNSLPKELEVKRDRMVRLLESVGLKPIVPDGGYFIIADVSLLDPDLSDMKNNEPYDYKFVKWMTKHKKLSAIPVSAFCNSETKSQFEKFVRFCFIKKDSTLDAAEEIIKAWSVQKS
UniProt Q14847: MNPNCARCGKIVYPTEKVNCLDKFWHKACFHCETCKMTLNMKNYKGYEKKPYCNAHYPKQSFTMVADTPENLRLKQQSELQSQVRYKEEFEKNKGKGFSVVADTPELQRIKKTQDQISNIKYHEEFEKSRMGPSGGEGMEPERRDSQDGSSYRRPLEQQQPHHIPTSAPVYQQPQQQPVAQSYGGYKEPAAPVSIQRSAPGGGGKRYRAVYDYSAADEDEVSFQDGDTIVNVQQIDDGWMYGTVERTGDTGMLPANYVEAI
UniProt Q9BRT6: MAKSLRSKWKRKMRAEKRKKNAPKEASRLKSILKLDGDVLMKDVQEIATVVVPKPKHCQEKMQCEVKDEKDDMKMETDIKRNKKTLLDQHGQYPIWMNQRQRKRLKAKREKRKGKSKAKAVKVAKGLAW
UniProt Q92539: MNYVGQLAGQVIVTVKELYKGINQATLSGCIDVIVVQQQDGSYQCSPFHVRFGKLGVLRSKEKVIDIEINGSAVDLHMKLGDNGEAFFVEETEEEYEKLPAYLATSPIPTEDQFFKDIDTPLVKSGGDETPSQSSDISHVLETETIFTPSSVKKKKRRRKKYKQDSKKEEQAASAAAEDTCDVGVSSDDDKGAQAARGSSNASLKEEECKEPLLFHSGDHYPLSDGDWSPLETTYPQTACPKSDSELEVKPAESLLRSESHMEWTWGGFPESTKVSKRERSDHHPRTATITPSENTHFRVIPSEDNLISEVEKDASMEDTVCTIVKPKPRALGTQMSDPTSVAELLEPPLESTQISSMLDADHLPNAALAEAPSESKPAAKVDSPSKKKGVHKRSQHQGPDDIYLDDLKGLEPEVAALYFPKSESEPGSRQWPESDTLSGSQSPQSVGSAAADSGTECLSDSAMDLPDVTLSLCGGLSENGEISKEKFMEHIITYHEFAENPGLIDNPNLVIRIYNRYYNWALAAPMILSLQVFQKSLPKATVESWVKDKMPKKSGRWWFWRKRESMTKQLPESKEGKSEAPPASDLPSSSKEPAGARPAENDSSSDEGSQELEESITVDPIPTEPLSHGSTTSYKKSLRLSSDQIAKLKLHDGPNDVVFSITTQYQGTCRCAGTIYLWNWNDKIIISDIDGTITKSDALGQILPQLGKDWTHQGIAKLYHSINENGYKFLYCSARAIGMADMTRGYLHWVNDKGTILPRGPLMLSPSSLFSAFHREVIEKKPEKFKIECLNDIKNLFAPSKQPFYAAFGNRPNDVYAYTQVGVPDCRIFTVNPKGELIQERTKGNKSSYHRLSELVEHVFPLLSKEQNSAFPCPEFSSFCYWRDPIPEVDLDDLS
UniProt Q4G0J3: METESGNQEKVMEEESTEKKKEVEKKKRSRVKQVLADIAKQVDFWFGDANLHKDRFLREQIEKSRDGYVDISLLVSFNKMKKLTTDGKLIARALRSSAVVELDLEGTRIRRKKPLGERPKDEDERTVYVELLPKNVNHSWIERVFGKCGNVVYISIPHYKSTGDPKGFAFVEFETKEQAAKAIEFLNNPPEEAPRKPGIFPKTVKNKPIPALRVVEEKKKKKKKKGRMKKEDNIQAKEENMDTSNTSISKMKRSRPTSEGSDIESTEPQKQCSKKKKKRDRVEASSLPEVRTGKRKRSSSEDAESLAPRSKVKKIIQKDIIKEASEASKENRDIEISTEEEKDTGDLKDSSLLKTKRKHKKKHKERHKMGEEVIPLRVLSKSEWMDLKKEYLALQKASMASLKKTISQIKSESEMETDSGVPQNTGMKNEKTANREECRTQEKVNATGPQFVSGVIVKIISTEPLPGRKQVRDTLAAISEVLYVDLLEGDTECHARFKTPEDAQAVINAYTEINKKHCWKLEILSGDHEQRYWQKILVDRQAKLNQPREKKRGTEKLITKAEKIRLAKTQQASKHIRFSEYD
UniProt Q96AG4: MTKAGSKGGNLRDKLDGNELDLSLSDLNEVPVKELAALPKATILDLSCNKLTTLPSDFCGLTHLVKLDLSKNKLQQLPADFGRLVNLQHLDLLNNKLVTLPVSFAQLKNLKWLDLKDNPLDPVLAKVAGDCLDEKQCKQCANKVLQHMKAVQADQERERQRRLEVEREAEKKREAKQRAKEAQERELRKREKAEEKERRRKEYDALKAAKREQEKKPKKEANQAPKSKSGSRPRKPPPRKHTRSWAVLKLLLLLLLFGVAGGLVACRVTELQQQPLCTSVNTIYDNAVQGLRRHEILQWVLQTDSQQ
UniProt P09382, whole entry, looked up: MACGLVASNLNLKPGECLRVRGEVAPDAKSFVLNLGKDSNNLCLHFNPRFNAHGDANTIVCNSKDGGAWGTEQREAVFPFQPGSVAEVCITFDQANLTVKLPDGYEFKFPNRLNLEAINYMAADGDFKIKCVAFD
UniProt O14910: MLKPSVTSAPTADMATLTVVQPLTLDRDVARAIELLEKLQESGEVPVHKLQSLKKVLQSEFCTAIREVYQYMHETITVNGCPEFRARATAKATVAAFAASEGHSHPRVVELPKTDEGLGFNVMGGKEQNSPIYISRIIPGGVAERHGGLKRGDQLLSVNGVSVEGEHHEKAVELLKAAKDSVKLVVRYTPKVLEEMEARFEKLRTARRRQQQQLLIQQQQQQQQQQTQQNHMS
UniProt Q8TCA0: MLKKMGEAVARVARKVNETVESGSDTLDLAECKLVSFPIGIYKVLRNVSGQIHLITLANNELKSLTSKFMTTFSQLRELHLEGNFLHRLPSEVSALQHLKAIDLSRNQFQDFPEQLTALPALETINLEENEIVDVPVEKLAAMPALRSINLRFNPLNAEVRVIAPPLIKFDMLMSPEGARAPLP
UniProt Q8N9N7: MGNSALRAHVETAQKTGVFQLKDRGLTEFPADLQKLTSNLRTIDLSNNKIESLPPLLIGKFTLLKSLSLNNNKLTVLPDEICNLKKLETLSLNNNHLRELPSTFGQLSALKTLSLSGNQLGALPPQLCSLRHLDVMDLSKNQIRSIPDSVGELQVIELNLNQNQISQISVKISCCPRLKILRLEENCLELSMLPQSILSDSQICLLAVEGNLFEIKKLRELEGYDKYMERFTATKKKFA
UniProt Q9NS86: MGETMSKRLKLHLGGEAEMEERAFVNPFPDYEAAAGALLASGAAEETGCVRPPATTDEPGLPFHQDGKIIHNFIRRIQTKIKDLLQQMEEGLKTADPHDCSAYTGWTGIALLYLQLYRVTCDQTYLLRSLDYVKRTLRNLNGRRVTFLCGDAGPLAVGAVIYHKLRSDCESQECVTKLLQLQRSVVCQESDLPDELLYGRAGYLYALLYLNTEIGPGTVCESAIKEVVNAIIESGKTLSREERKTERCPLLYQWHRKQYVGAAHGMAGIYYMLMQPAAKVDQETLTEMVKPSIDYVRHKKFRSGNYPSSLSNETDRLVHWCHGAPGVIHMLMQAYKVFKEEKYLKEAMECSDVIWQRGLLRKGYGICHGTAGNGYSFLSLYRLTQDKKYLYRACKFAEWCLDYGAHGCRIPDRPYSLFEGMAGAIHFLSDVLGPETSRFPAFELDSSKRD
UniProt Q8N1G4: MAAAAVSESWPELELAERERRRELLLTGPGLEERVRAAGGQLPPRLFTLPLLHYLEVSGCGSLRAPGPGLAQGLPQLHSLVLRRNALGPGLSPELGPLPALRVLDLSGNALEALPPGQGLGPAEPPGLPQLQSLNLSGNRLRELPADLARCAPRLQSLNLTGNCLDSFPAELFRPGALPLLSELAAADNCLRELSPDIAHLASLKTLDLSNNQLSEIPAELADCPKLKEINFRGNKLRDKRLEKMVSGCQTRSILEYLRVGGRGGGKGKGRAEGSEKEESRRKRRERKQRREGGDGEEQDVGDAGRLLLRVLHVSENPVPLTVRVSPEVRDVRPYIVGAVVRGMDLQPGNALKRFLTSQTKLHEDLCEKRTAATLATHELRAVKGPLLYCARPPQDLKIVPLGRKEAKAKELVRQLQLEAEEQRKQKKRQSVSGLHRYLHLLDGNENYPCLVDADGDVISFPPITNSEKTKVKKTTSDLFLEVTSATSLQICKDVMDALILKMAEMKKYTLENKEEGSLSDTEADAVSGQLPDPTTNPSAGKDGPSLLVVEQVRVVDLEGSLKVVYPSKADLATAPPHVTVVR
UniProt P30533, whole entry, looked up: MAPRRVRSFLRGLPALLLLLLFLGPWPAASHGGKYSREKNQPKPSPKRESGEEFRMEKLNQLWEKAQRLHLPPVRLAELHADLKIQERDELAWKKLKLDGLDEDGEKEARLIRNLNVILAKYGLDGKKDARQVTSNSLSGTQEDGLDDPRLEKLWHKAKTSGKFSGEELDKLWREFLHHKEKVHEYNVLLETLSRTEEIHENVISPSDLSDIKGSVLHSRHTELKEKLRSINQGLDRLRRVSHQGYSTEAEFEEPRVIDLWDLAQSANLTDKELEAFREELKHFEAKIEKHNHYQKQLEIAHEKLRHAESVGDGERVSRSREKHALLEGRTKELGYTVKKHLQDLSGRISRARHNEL
UniProt O94898: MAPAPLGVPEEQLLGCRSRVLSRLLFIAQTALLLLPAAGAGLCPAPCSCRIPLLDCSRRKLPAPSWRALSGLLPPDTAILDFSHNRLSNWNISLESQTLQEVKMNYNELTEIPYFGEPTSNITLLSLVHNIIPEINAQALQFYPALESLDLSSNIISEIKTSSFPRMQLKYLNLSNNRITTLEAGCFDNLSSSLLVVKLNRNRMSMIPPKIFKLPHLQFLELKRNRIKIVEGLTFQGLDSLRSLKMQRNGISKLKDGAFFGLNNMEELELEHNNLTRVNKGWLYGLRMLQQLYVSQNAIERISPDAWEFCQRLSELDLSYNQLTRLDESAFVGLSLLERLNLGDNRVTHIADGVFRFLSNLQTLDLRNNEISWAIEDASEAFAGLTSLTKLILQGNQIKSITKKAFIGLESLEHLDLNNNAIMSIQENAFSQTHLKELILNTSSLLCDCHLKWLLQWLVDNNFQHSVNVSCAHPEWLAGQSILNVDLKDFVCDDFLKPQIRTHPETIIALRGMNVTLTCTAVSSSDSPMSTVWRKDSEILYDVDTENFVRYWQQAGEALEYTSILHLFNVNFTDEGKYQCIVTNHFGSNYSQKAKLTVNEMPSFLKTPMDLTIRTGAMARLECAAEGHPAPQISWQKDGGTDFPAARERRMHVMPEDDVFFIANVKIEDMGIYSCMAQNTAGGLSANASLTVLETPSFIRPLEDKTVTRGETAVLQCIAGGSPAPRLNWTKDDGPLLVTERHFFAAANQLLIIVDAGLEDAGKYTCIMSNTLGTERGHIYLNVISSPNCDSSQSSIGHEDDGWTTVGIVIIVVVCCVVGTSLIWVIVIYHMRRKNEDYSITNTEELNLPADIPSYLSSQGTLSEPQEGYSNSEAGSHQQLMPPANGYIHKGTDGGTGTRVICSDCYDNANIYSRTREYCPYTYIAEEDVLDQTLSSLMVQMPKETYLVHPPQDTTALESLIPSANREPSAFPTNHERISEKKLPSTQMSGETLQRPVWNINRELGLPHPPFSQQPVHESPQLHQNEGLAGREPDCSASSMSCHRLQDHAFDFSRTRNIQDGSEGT
UniProt Q9NT99: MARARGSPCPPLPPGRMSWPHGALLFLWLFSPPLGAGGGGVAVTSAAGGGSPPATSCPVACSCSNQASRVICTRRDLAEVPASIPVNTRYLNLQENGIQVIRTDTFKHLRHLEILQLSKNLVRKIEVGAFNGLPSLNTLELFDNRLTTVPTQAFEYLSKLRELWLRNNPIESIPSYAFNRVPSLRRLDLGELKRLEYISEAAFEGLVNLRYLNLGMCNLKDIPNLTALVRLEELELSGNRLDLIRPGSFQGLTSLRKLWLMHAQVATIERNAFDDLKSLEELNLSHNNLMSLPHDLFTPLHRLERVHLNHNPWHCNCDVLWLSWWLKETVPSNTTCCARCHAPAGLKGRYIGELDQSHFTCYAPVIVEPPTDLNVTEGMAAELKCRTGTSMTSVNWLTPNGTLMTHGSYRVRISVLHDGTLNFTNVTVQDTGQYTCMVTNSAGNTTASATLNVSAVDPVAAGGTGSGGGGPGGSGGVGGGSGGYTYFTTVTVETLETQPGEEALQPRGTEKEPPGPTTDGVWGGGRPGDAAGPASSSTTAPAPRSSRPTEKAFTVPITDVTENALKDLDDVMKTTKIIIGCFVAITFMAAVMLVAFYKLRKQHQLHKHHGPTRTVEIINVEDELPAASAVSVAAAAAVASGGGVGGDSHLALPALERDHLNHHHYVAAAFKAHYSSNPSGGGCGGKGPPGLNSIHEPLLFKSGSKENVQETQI

This is one part of the list.

Compound in one test: CNC(=O)c1ccc(Nc2ncc(C(F)(F)F)c(NCc3nccnc3N(C)S(C)(=O)=O)n2)cc1 [defactinib]
As to the kind of experiment: log2 fold change, soluble protein after heating vs DMSO (PISA); higher = thermal stabilisation; K562 cells, 10 uM, 30 min; active = over 0.2 and 3.5 SD of the protein, either way, in both replicates (recomputed). Put shortly: (§1)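 Thermal stability values are relative to control samples and come from duplicates. They are expressed as log2 fold changes. For measurement, K562 cells (2×10^6 cells/mL) received 10 μM compound for 30 min, and aliquots were heated for 3 min over 48°C-58°C, pooled, and extracted at 4°C in PBS with 0.5% NP-40. Soluble protein, the supernatant after 21,000xg for 90 min, was quantified by TMTpro 16plex LC-MS/MS with equalised channel sums.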
As for KYNU (UniProt Q16719), the log2 fold change is inactive: -0.022.
As for KTN1 (UniProt Q86UP2), the log2 fold change was inactive: 0.109.
The same measure, in the same setting: as for LPIN3 isoform 2 (UniProt Q9BQK8), the figure is inactive: -0.022.
Same read-out and setting: as for LDHA isoform 3 (UniProt P00338), the figure is inactive: -0.009; as for KYAT3 (UniProt Q6YP21), inactive: -0.012.
On the same count and under the same terms, with LASP1 (UniProt Q14847) the figure was inactive: -0.012; with LCLAT1 (UniProt Q6UWP7), inactive: -0.03.
As for LAMTOR4 (UniProt Q0VGL1), the log2 fold change is inactive: 0.007.
Still for that read-out and setting: as for LLPH (UniProt Q9BRT6), the figure is inactive: 0.57; as for LMAN2 (UniProt Q12907), inactive: 0.003.
The same measure, in the same setting: as for LPIN2 (UniProt Q92539), the figure is inactive: 0.015.
As for LARP7 isoform 3 (UniProt Q4G0J3), the log2 fold change was active: -0.328.
As for LARS (UniProt Q9P2J5), the log2 fold change is inactive: 0.163.
The same measure, in the same setting: as for LAMTOR5 (UniProt O43504), the figure is inactive: -0.024; as for LRRC59 (UniProt Q96AG4), inactive: 0.001.
Same read-out and setting: with LGALS1 (UniProt P09382) the figure was inactive: 0.005; with LIMK2 isoform 3 (UniProt P53671), inactive: 0.099.
Still for that read-out and setting: with LIN7A (UniProt O14910) the figure was inactive: -0.021; with LRRC20 (UniProt Q8TCA0), inactive: -0.052; with LRRC57 (UniProt Q8N9N7), inactive: -0.053.
For the target LANCL2 (UniProt Q9NS86), the log2 fold change was inactive: -0.015.
Still for that read-out and setting: with LMNA (UniProt P02545) the figure was inactive: -0.121.
Still for that read-out and setting: with LMNB2 (UniProt Q03252) the figure was inactive: -0.201; with LRRC47 (UniProt Q8N1G4), inactive: -0.04; with L1RE1 (UniProt Q9UN81), inactive: -0.008.
In the case of LRPAP1 (UniProt P30533), the log2 fold change was inactive: -0.012.
Still for that read-out and setting: as for LRIG2 (UniProt O94898), the figure is inactive: -0.008; as for LCMT2 (UniProt O60294), inactive: -0.067; as for LIN7C (UniProt Q9NUP9), inactive: 0.059.
The same measure, in the same setting: with LRRC4B (UniProt Q9NT99) the figure was inactive: 0.063.

Compound in the next test: CNCc1ccc(-c2[nH]c3cc(F)cc4c3c2CCNC4=O)cc1 [rucaparib]
The test is described as above. The gist of the method: as §1
In the case of KYNU (UniProt Q16719), the log2 fold change is inactive: 0.054.
On the same count and under the same terms, as for KTN1 (UniProt Q86UP2), the figure is inactive: 0.155.
On the same count and under the same terms, as for LPIN3 isoform 2 (UniProt Q9BQK8), the figure is inactive: 0.049.
Regarding LDHA isoform 3 (UniProt P00338), the log2 fold change was inactive: -0.025.
The same measure, in the same setting: as for KYAT3 (UniProt Q6YP21), the figure is inactive: -0.049; as for LASP1 (UniProt Q14847), inactive: -0.014.
Regarding LCLAT1 (UniProt Q6UWP7), the log2 fold change was inactive: -0.074.
The same measure, in the same setting: with LAMTOR4 (UniProt Q0VGL1) the figure was inactive: -0.041; with LLPH (UniProt Q9BRT6), inactive: 0.412.
Still for that read-out and setting: as for LMAN2 (UniProt Q12907), the figure is inactive: 0.037.
For LPIN2 (UniProt Q92539), the log2 fold change is inactive: -0.046.
For the target LARP7 isoform 3 (UniProt Q4G0J3), the log2 fold change is inactive: -0.164.
Same read-out and setting: with LLGL2 (UniProt Q6P1M3) the figure was inactive: 0.179; with LARS (UniProt Q9P2J5), inactive: 0.364.
Same read-out and setting: as for LAMTOR5 (UniProt O43504), the figure is inactive: 0.036.
For LRRC59 (UniProt Q96AG4), the log2 fold change is inactive: -0.01.
The same measure, in the same setting: with LGALS1 (UniProt P09382) the figure was inactive: -0.026; with LIMK2 isoform 3 (UniProt P53671), inactive: -0.106; with LIN7A (UniProt O14910), inactive: 0.093.
On the same count and under the same terms, as for LRRC20 (UniProt Q8TCA0), the figure is inactive: 0.019; as for LRRC57 (UniProt Q8N9N7), inactive: -0.035.
Still for that read-out and setting: with LANCL2 (UniProt Q9NS86) the figure was inactive: -0.019; with LMNA (UniProt P02545), inactive: -0.08; with LMNB2 (UniProt Q03252), inactive: -0.085.
Take LRRC47 (UniProt Q8N1G4): the log2 fold change was inactive: -0.072.
The same measure, in the same setting: with L1RE1 (UniProt Q9UN81) the figure was inactive: 0.073.
Still for that read-out and setting: with LRPAP1 (UniProt P30533) the figure was inactive: -0.058.
Same read-out and setting: with LRIG2 (UniProt O94898) the figure was inactive: -0.021.
Regarding LCMT2 (UniProt O60294), the log2 fold change is inactive: 0.075.
On the same count and under the same terms, as for LIN7C (UniProt Q9NUP9), the figure is inactive: -0.005.
Same read-out and setting: as for LETMD1 isoform 7 (UniProt Q6P1Q0), the figure is inactive: -0.026.
Turning to LRRC4B (UniProt Q9NT99), the log2 fold change is inactive: 0.069.

Compound in a further test: CNc1nc(-c2ccc3c(N)n[nH]c3c2)cc(N2C[C@@H](C(=O)NC3CCCCC3)CC[C@H]2C)n1
The test is described as above. Put shortly: as §1
Consider KYNU (UniProt Q16719), for which the log2 fold change was inactive: -0.051.
Still for that read-out and setting: with KTN1 (UniProt Q86UP2) the figure was inactive: -0.079; with LPIN3 isoform 2 (UniProt Q9BQK8), inactive: 0.049.
The same measure, in the same setting: as for LDHA isoform 3 (UniProt P00338), the figure is inactive: -0.018; as for KYAT3 (UniProt Q6YP21), inactive: -0.031.
Still for that read-out and setting: as for LASP1 (UniProt Q14847), the figure is inactive: -0.045; as for LCLAT1 (UniProt Q6UWP7), inactive: -0.068.
Consider LAMTOR4 (UniProt Q0VGL1), for which the log2 fold change was inactive: -0.051.
On the same count and under the same terms, as for LLPH (UniProt Q9BRT6), the figure is inactive: 0.069; as for LMAN2 (UniProt Q12907), inactive: -0.034; as for LPIN2 (UniProt Q92539), inactive: 0.007.
The same measure, in the same setting: with LARP7 isoform 3 (UniProt Q4G0J3) the figure was inactive: 0.003; with LARS (UniProt Q9P2J5), inactive: 0.117.
For the target LAMTOR5 (UniProt O43504), the log2 fold change is inactive: 0.014.
The same measure, in the same setting: with LRRC59 (UniProt Q96AG4) the figure was inactive: -0.005.
The same measure, in the same setting: with LGALS1 (UniProt P09382) the figure was inactive: -0.004; with LIMK2 isoform 3 (UniProt P53671), inactive: -0.23; with LIN7A (UniProt O14910), inactive: -0.077.
On the same count and under the same terms, as for LRRC20 (UniProt Q8TCA0), the figure is inactive: 0.009; as for LRRC57 (UniProt Q8N9N7), inactive: 0.004; as for LANCL2 (UniProt Q9NS86), inactive: -0.015.
For the target LMNA (UniProt P02545), the log2 fold change was inactive: -0.138.
The same measure, in the same setting: as for LMNB2 (UniProt Q03252), the figure is inactive: -0.073; as for LRRC47 (UniProt Q8N1G4), inactive: 0.029; as for L1RE1 (UniProt Q9UN81), inactive: 0.034.
Turning to LRPAP1 (UniProt P30533), the log2 fold change is inactive: -0.041.
As for LRIG2 (UniProt O94898), the log2 fold change is inactive: -0.017.
Regarding LCMT2 (UniProt O60294), the log2 fold change is inactive: 0.233.
Turning to LIN7C (UniProt Q9NUP9), the log2 fold change is inactive: -0.151.
For LETMD1 isoform 7 (UniProt Q6P1Q0), the log2 fold change is inactive: 0.021.
On to LRRC4B (UniProt Q9NT99), for which the log2 fold change is inactive: -0.028.
